# Results reported in PMC3496659, “Analysis of the sulfur-regulated control of the cystathionine γ-lyase gene of Neurospora crassa”.
# For at least one entry, the source does not settle the construct or the ends of the probe. A weaker result is weaker than the reference pair of the same experiment. At least one verdict rests on a figure or table, not on a statement of the authors. Where a protein sequence is shown, tags need not be part of it.
# Molecular target: T1, CYS3 transcriptional activator (Neurospora crassa) (UniProt P22697)
# T1 sequence (looked up, limits assumed): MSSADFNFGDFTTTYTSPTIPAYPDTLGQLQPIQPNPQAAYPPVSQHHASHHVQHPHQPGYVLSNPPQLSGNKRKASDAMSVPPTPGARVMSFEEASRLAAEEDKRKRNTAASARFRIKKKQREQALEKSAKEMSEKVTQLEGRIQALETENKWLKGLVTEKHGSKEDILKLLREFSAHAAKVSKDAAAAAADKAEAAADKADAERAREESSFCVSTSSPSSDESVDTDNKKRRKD
# Assay: EMSA
# Conditions: Binding buffer not given (refs 14,20); 4% PAGE in 50 mM Tris-80 mM glycine-2 mM EDTA pH 8.5, 20 mA, 4 C; recombinant protein; label: 32P (T4 PNK)
row,Sequence,binding result
1,AACCTGAATTGCTCCATCGCCAAA (double strand) [Site 3 M],binds more weakly
2,ACCATGCATTCCGCCATAGAGGTA (double strand) [cys-16+ Site 1],binds more weakly
3,ACCATGCATTCCTCCATAGAGGTA (double strand) [Site 1 M],binds more weakly
4,GTCGTCGATGGGTTCAGTGGTGCT (double strand) [Site 2 M],binds more weakly
5,GTCGTCGATGGTGTCAGTGGTGCT (double strand) [cys-16+ Site 2],binds
6,TCACCAATTGGCGCCATCTCCGTC (double strand) [cys-16+ Site 4],binds
7,TCACCAATTGGCTCCATCTCCGTC (double strand) [Site 4 M],binds more weakly
